# Results of single-concentration screens

Each number is a percent effect as filed. The controls that fix the scale are not given in the record; negative values are as filed. This is an unselected part of the compounds tested.

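Whole-parasite assay of Trypanosoma brucei over 72 hours; the read-out is not stated. Concentration: 30 µM. The record gives no direction; compounds that gave an IC50 in retests scored well above the rest, so higher reads as stronger inhibition. Values scatter widely below zero; nearly all retest evidence comes from the higher of the two concentrations used. Size under these conditions: about 64,000 compounds, about 940 of them at 50% or above in at least one test.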

| # | Compound | percent effect |
|---|---|---|
| 1 | `O=C(O)C(F)(F)F.O=C(O)C(F)(F)F.c1ccc(NCc2cnc3n2CCN(CC2CCOC2)CC3)nc1` (stereo not drawn) | 22.88 |
| 2 | `CN(C)c1cccc(C(=O)N2CCCSCC2CN2CCCC2)c1` (stereo not drawn) | 1.583 |
| 3 | `CNC(=O)c1cccc(NCC(=O)Nc2cc(C)nn2C)c1C` | -8.974 |
| 4 | `CCCc1nc(CN2CCCC(Cn3cncn3)C2)no1` (stereo not drawn) | 18.35 |
| 5 | `Cc1noc(C)c1CS(=O)(=O)C(C)C(=O)N(C)c1ccccc1` (stereo not drawn) | -29.89 |
| 6 | `Cc1cnn(CC2CCN(c3cc(C(C)C)nc4ccnn34)CC2)c1` | -19.67 |
| 7 | `CN(CC(=O)Nc1cccnc1)CC1CCCN1c1cccnn1` (stereo not drawn) | -38.01 |
| 8 | `Cc1cc(C(F)(F)F)c2c(C3CCN(S(=O)(=O)N(C)C)CC3)noc2n1` | 16.57 |
| 9 | `COCCn1cc(NCc2cccc3cn[nH]c23)cn1` | -40.68 |
| 10 | `Cc1csc(CNc2cnn(CC(F)(F)F)c2)n1` | -20.69 |
| 11 | `CC1CCN(CC(=O)N(C)CCc2noc(C3CC3)n2)C1=O` (stereo not drawn) | 6.948 |
| 12 | `COc1ccc(Br)cc1CN(C)C(C)c1nc(C)no1` (stereo not drawn) | -33.65 |
| 13 | `CCC(C)c1csc(NC(=O)Cc2csc(-c3nnc[nH]3)n2)n1` (stereo not drawn) | -114.9 |
| 14 | `Cc1cccc(-n2nc(CC(C)C)nc2CCC(=O)N(C)C)c1` | -20.53 |
| 15 | `CCc1cnc(COc2ccc(OC3CCCCNC3=O)cc2)o1` (stereo not drawn) | -19.66 |
| 16 | `NCc1n[nH]c(=O)n1-c1cccc(Cl)c1Cl` | 17.9 |
| 17 | `CCn1cc(CN2CCCN(C(=O)CCc3cnn(C)c3)CC2)cn1` | -1.298 |
| 18 | `O=C(O)C(F)(F)F.[H][C@]12C[C@@H](Cn3cncn3)N(C(C)C)[C@@]1([H])CCN(c1ncccn1)C2` | -29.9 |
| 19 | `COCC(NC(=O)c1cc(NC(C)=O)ccc1Cl)c1ccccn1` (stereo not drawn) | -1.499 |
| 20 | `CNC(=O)CC1CC2(CCN(S(C)(=O)=O)CC2)c2ccccc21` (stereo not drawn) | 2.535 |
| 21 | `CCCC1(CO)CCCN(c2ncccc2F)C1` (stereo not drawn) | -11.2 |
| 22 | `CCC(CNC(=O)OC)(OC)c1ccccc1` (stereo not drawn) | 1.974 |
| 23 | `CCn1c(C)cc(C(=O)N2C[C@@H](C(=O)O)[C@H](c3ccccc3C)C2)c1C` | -8.021 |
| 24 | `CCCOc1cc(F)ccc1NC(=O)NCc1noc(C)n1` | -8.533 |
| 25 | `CCc1nnsc1C(=O)N1CCCC(COc2ccc(F)cc2)C1` (stereo not drawn) | -56.11 |
| 26 | `Cc1cc(C)n(-c2ccc(C(=O)NCC(c3cccs3)N(C)C)cc2)n1` (stereo not drawn) | 17.1 |
| 27 | `CCN(C(=O)Cc1ccc(NCc2nccn2C)cc1)c1ccccc1` | -22.98 |
| 28 | `[H][C@@]12CCN(CCN(C)C)[C@@]1([H])CCN2C(=O)c1cccc(Cl)c1` | -22.02 |
| 29 | `CCn1cc(CN(C)C(=O)c2cc(C(F)(F)F)n(C)n2)cn1` | -2.058 |
| 30 | `NC(=O)c1csc(N2CCN(C3CCc4ccccc4C3)CC2)n1` (stereo not drawn) | 22.59 |
| 31 | `NCc1cn(-c2ccccc2C(=O)NCc2cccc(Cl)c2)cn1` | -34.65 |
| 32 | `Cc1cccc(CN2CC3(CCN(C4CCOC4)CC3)OCC2=O)n1.O=C(O)C(F)(F)F.O=C(O)C(F)(F)F` (stereo not drawn) | -30.34 |
| 33 | `CC(C)c1noc(CCC(=O)Nc2cc(F)ccc2F)n1` | -26.68 |
| 34 | `CCCC(CNc1cc(C(C)C)nc2ccnn12)N(C)C` (stereo not drawn) | -20.9 |
| 35 | `O=C(O)C(F)(F)F.O=C(O)C(F)(F)F.[H][C@@]12CN(Cc3nccs3)C[C@@H](C(=O)NC3CCCC3)[C@]1([H])CCO2` | -14.59 |
| 36 | `O=C(Cc1ccccn1)N1CCCC(c2nccn2CC2CCC2)C1` (stereo not drawn) | -22.47 |
| 37 | `CN(C)CCNC(=O)CNC(=O)N1CCc2c([nH]c3ccc(Cl)cc23)C1` | -8.909 |
| 38 | `Cc1nc2[nH]cnc(NCCN3CCOCC3)c-2n1` | -2.28 |
| 39 | `O=C(O)C(F)(F)F.O=C(O)C(F)(F)F.[H][C@@]12COC[C@]1([H])[C@@H](OCCN(C)C)CN2Cc1ccco1` | -66.53 |
| 40 | `CC(C)=CCCC1(C)CCC(=O)N(CCc2nc(N)cc(O)n2)C1` (stereo not drawn) | -57.01 |
| 41 | `CCS(=O)(=O)N1CCN(c2cc(-n3cnc(C)c3C)nc(C)n2)CC1` | -29.62 |
| 42 | `Cc1cc(C(=O)N2CCCC(c3nncn3C)C2)no1` (stereo not drawn) | -15.45 |
| 43 | `CN1CCC(c2nnc3ccc(C(=O)NC4CCCC4)cn23)C1.O=C(O)C(F)(F)F` (stereo not drawn) | -10.85 |
| 44 | `CN(C)Cc1cc(=O)n2c(n1)CN(CC1CCOCC1)CCC2` | -9.26 |
| 45 | `Cc1noc(CCCC(=O)Nc2ncccc2Br)n1` | -9.946 |
| 46 | `CCn1cc(CN2CCCN(C(=O)CCn3cc(C)cn3)CC2)cn1` | -9.74 |
| 47 | `[H][C@]12CCCCN1CCC[C@H]2CNC(=O)Cn1ccc2cc(OC)ccc21` | -1.968 |
| 48 | `COCCCC1CCCCN1Cc1cn2cc(C)ccc2n1` (stereo not drawn) | -59.35 |
| 49 | `COCCN1CC(C(=O)N(C)Cc2csc(C)n2)CC1=O` (stereo not drawn) | -30.38 |
| 50 | `O=C(c1nc2c(s1)CCCN2CC1CC1)N1CCOCC1` | -31.56 |
| 51 | `[H][C@]12CC[C@]([H])(CN(C(=O)COCC)C1)N(Cc1ccccn1)C2=O` | -27.1 |
| 52 | `O=C(O)C(F)(F)F.O=C(c1ccccc1)N1CCC2(CCCN2c2ncccn2)CC1` | -3.287 |
| 53 | `COCc1cc(CNC(=O)c2cc(NC(C)=O)ccc2Cl)n[nH]1` | -15.93 |
| 54 | `CC(=O)c1ccc(NC(=O)NC(C(=O)N(C)C)C(C)C)cc1` (stereo not drawn) | 5.455 |
| 55 | `Cc1n[nH]c(C)c1CNc1ccc(-c2nc(C3CC3)no2)cn1` | -2.85 |
| 56 | `CCS(=O)(=O)N1CCCn2cnc(COc3cccnc3)c2C1.O=C(O)C(F)(F)F` | -51.81 |
| 57 | `NC(=O)N1CCCC(C(=O)NCCOc2ccc(F)c(F)c2)C1` (stereo not drawn) | -4.842 |
| 58 | `CC(c1nc(C(C)(C)C)no1)N1CCN(C(=O)CN2CCOCC2)CC1` (stereo not drawn) | -11.48 |
| 59 | `c1coc(CN2CCc3onc(Cn4ccnc4)c3C2)c1` | -24.28 |
| 60 | `Cc1cccc(C2(CNC(C)c3nnc(C)o3)CCCC2)c1` (stereo not drawn) | 99.4 |
| 61 | `CC1CN(C)c2ccccc2CN1C(=O)c1cc(C#N)cn1C` (stereo not drawn) | -17.62 |
| 62 | `CCC[C@H]1CN(CCS(C)(=O)=O)C[C@@H]1NC(=O)c1cc[nH]n1` | -36.89 |
| 63 | `CC(C)Cc1noc(CN(C)C2CCS(=O)(=O)C2)n1` (stereo not drawn) | -40.95 |
| 64 | `CC(C)c1ccn(C2(C(=O)O)CCN(c3ccncc3F)CC2)n1` | -6.345 |

Some entries from above, unchanged:

Compound	percent effect
CC(C)c1ccn(C2(C(=O)O)CCN(c3ccncc3F)CC2)n1	-6.345
CCS(=O)(=O)N1CCN(c2cc(-n3cnc(C)c3C)nc(C)n2)CC1	-29.62
Cc1csc(CNc2cnn(CC(F)(F)F)c2)n1	-20.69
Cc1n[nH]c(C)c1CNc1ccc(-c2nc(C3CC3)no2)cn1	-2.85
CC(c1nc(C(C)(C)C)no1)N1CCN(C(=O)CN2CCOCC2)CC1 (stereo not drawn)	-11.48
COCCN1CC(C(=O)N(C)Cc2csc(C)n2)CC1=O (stereo not drawn)	-30.38
CCCC(CNc1cc(C(C)C)nc2ccnn12)N(C)C (stereo not drawn)	-20.9
CN(C)c1cccc(C(=O)N2CCCSCC2CN2CCCC2)c1 (stereo not drawn)	1.583

Source: ChEMBL document CHEMBL3988442, “University of Dundee, Small-Polar-MMV Screening Library” (2021).